Reference: patent US20250179208A1
Residue numbers refer to the chain shown, from its start. Results are given in words; binding and its absence hold for the method and conditions named. Some results given as binding are weak or reduced against the parent protein; the word gives no strength.

Amino acid sequences for entries named in this document (tags omitted). Residues count along the entry.
UniProt P27487, residues 29-766: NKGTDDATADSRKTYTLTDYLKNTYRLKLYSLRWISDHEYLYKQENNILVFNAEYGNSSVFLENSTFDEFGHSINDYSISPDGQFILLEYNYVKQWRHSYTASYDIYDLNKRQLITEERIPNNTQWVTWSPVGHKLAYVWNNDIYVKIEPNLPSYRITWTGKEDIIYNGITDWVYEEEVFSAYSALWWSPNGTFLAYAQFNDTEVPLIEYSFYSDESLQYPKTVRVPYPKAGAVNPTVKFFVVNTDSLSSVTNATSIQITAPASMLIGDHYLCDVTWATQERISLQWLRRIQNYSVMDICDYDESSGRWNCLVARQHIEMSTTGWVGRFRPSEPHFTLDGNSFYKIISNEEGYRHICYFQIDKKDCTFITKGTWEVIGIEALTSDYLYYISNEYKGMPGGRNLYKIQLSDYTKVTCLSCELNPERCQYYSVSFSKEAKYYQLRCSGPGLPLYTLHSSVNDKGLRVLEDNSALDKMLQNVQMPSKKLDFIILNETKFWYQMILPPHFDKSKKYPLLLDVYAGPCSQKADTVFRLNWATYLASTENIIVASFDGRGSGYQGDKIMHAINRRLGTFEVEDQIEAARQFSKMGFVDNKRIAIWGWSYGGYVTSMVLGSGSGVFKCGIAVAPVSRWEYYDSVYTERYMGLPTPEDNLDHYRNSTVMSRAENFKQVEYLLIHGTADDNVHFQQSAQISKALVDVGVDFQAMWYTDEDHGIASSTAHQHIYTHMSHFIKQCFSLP

B1: 19G294 (anti-CD26-CD3 humanized bispecific antibody derived from No. 62 mouse antibody) (bispecific antibody)
chain: DIVMTQSPSSLSVTPGERVSISCRSDKSLLHSNGNTYLYWFLQKPGQSPQVLIYRMSNLASGVPDRFSGSGSGTDFTLTISRVEAEDVGVYYCFQQLEYPYTFGQGTKLEIKGGGGSGGGGSGGGGSEVQLVQSGAELVKPGASVKLSCAASGFNIKDTYIYWVRQAPGQGLEWVGRIEPMNGNTKYDPKFQGRFTMTANTSKNTAYLQLSSLRSEDTAVYYCSRGGWLLLYVMDYWGQGTLVTVSSGGGGSDVQLVQSGAEVKKPGASVKVSCKASGYTFTRYTMHWVRQAPGQGLEWIGYINPSRGYTNYADSVKGRFTITTDKSTSTAYMELSSLRSEDTATYYCARYYDDHYCLDYWGQGTTVTVSSGGGGSGGGGSGGGGSDIVLTQSPATLSLSPGERATLSCRASQSVSYMNWYQQKPGKAPKRWIYDTSKVASGVPARFSGSGSGTDYSLTINSLEAEDAATYYCQQWSSNPLTFGGGTKVEIK
B2: 17G131 (anti-CD26-CD3 chimeric bispecific antibody derived from No. 51 mouse antibody) (bispecific antibody)
chain: DIQMTQSPASLSASVGESVTITCRASENIYSYLTWYQQKQGKSPQLLVYNAKTLTEDVPSRFSGSGSGTQFSLKINSLQPEDFGSYYCQHHYGSPRTFGGGTKLEIKGGGGSGGGGSGGGGSQAQLQQSGAELMKPGASVKISCKATGYTFSNFWIEWVVQRPGHGLEWIGEILPGRGTTNYNEKFRGKATFTADTSSDTAYIQLSSLTSEDSAVYYCARERFYGSKYFDVWGAGTTVTVSSGGGGSDVQLVQSGAEVKKPGASVKVSCKASGYTFTRYTMHWVRQAPGQGLEWIGYINPSRGYTNYADSVKGRFTITTDKSTSTAYMELSSLRSEDTATYYCARYYDDHYCLDYWGQGTTVTVSSGGGGSGGGGSGGGGSDIVLTQSPATLSLSPGERATLSCRASQSVSYMNWYQQKPGKAPKRWIYDTSKVASGVPARFSGSGSGTDYSLTINSLEAEDAATYYCQQWSSNPLTFGGGTKVEIK
B3: 17G61 (anti-CD26-CD3 chimeric bispecific antibody derived from No. 62 mouse antibody) (bispecific antibody)
chain: DIVMTQAAPSVSVTPGESVSISCRSDKSLLHSNGNTYLYWFLQRPGQSPQVLIYRMSNLASGVPDRFSGSGSGTGFTLRVSRVEAEDVGVYYCFQQLEYPYTFGGGTKLEIKGGGGSGGGGSGGGGSEVQLQQSGAELVKPGASVKLSCTASGFNIKDTYIYWVKQRPGQGLEWIGRIEPMNGNTKYDPKFQGKATMTANTSSNTAYLHLSSLASEDTAVYFCSRGGWLLLYVMDYWGQGTSVTVSSGGGGSDVQLVQSGAEVKKPGASVKVSCKASGYTFTRYTMHWVRQAPGQGLEWIGYINPSRGYTNYADSVKGRFTITTDKSTSTAYMELSSLRSEDTATYYCARYYDDHYCLDYWGQGTTVTVSSGGGGSGGGGSGGGGSDIVLTQSPATLSLSPGERATLSCRASQSVSYMNWYQQKPGKAPKRWIYDTSKVASGVPARFSGSGSGTDYSLTINSLEAEDAATYYCQQWSSNPLTFGGGTKVEIK
B4: 17G105 (anti-CD26-CD3 chimeric bispecific antibody derived from No. 72 mouse antibody) (bispecific antibody)
chain: DIVLTQSPASLAVSLGQRATISCRASESVEYYGTSLMQWYQQKPGQPPKLLIYTASNVESGVPVRFSGSGSGTDFSLNIHPVEEDDIAMYFCQQSRKVPYTFGGGTKLEIKGGGGSGGGGSGGGGSQVQLQQSGPELMKPGASVKISCKATGYSFSGFWIEWVKQRPGHGLEWIGEILPGSGASNYHENFKGRATITADTSANTAYMQLRSLTSEDSAVYYCARERYYGSKYFDVWGAGTTVTVSSGGGGSDVQLVQSGAEVKKPGASVKVSCKASGYTFTRYTMHWVRQAPGQGLEWIGYINPSRGYTNYADSVKGRFTITTDKSTSTAYMELSSLRSEDTATYYCARYYDDHYCLDYWGQGTTVTVSSGGGGSGGGGSGGGGSDIVLTQSPATLSLSPGERATLSCRASQSVSYMNWYQQKPGKAPKRWIYDTSKVASGVPARFSGSGSGTDYSLTINSLEAEDAATYYCQQWSSNPLTFGGGTKVEIK
B5: 18G272 (anti-CD26-CD3 humanized bispecific antibody derived from No. 62 mouse antibody) (bispecific antibody)
chain: DIVMTQSASSLPVTPGEPASISCRSDKSLLHSNGNTYLYWFLQKPGQSPQVLIYRMSNLASGVPDRFSGSGSGTDFTLTISRVEAEDVGVYYCFQQLEYPYTFGQGTKLEIKGGGGSGGGGSGGGGSQVQLVQSGAEVVKPGASVKISCKASGFNIKDTYIYWVRQRTGQGLEWIGRIEPMNGNTKYDPKFQGRLTMTANTSKNTAYLQLSSLTSEDTAVYYCSRGGWLLLYVMDYWGQGTTVTVSSGGGGSDVQLVQSGAEVKKPGASVKVSCKASGYTFTRYTMHWVRQAPGQGLEWIGYINPSRGYTNYADSVKGRFTITTDKSTSTAYMELSSLRSEDTATYYCARYYDDHYCLDYWGQGTTVTVSSGGGGSGGGGSGGGGSDIVLTQSPATLSLSPGERATLSCRASQSVSYMNWYQQKPGKAPKRWIYDTSKVASGVPARFSGSGSGTDYSLTINSLEAEDAATYYCQQWSSNPLTFGGGTKVEIK
B6: 19G293 (anti-CD26-CD3 humanized bispecific antibody derived from No. 62 mouse antibody) (bispecific antibody)
chain: QVQLVQSGAELVKPGASVKLSCKASGFNIKDTYIYWVRQAPGQGLEWIGRIEPMNGNTKYDPKFQGRVTMTANTSINTAYLELSSLRSEDTAVYYCSRGGWLLLYVMDYWGQGTLVTVSSGGGGSGGGGSGGGGSDIVMTQSPLSLSVTPGEPASISCRSDKSLLHSNGNTYLYWFLQKPGQSPQVLIYRMSNLASGVPDRFSGSGSGTDFTLKISRVEAEDVGVYYCFQQLEYPYTFGQGTKLEIKGGGGSDVQLVQSGAEVKKPGASVKVSCKASGYTFTRYTMHWVRQAPGQGLEWIGYINPSRGYTNYADSVKGRFTITTDKSTSTAYMELSSLRSEDTATYYCARYYDDHYCLDYWGQGTTVTVSSGGGGSGGGGSGGGGSDIVLTQSPATLSLSPGERATLSCRASQSVSYMNWYQQKPGKAPKRWIYDTSKVASGVPARFSGSGSGTDYSLTINSLEAEDAATYYCQQWSSNPLTFGGGTKVEIK
B7: 19G292 (anti-CD26-CD3 humanized bispecific antibody derived from No. 62 mouse antibody) (bispecific antibody)
chain: QVQLLQSGAEVVKPGASVKISCKASGFNIKDTYIYWVKQPTGQGLEWIGRIEPMNGNTKYDPKFQGRFTMTANTSINTAYLQLSSLTSEDTAVYYCSRGGWLLLYVMDYWGQGTTVTVSSGGGGSGGGGSGGGGSDIVMTQSASSLPVTPGESVSISCRSDKSLLHSNGNTYLYWFLQRPGQSPQVLIYRMSNLASGVPDRFSGSGSGTEFTLTISRVEAEDVGVYYCFQQLEYPYTFGPGTKLEIKGGGGSDVQLVQSGAEVKKPGASVKVSCKASGYTFTRYTMHWVRQAPGQGLEWIGYINPSRGYTNYADSVKGRFTITTDKSTSTAYMELSSLRSEDTATYYCARYYDDHYCLDYWGQGTTVTVSSGGGGSGGGGSGGGGSDIVLTQSPATLSLSPGERATLSCRASQSVSYMNWYQQKPGKAPKRWIYDTSKVASGVPARFSGSGSGTDYSLTINSLEAEDAATYYCQQWSSNPLTFGGGTKVEIK
B8: 19G296 (anti-CD26-CD3 humanized bispecific antibody derived from No. 212 mouse antibody) (bispecific antibody)
chain: QVQLQESGPGLVKPSETLSLTCTVSGDSITSGYWHWIRQPPGKGLEWIGYINYSGYTYYNPSLKSRFTISRDTSKNQYYLQLNSVTAEDTAVYYCTSERNWGAFAYWGQGTLVTVSSGGGGSGGGGSGGGGSENVLTQSPATLSASPGERATLSCRASSSVISTYLHWYQQKPGQAPKLWIYSTSNLASGVPARFSGSGSGTDYTLTISSVEPEDFAVYYCQQFSGYPYTFGQGTKLEIKGGGGSDVQLVQSGAEVKKPGASVKVSCKASGYTFTRYTMHWVRQAPGQGLEWIGYINPSRGYTNYADSVKGRFTITTDKSTSTAYMELSSLRSEDTATYYCARYYDDHYCLDYWGQGTTVTVSSGGGGSGGGGSGGGGSDIVLTQSPATLSLSPGERATLSCRASQSVSYMNWYQQKPGKAPKRWIYDTSKVASGVPARFSGSGSGTDYSLTINSLEAEDAATYYCQQWSSNPLTFGGGTKVEIK
B9: 19G297 (anti-CD26-CD3 humanized bispecific antibody derived from No. 212 mouse antibody) (bispecific antibody)
chain: B8 chain with Q1E, E16G, T23A, P40A, I48V, T142S, A151V, L153I, S154T, V218T
B10: 19G295 (anti-CD26-CD3 humanized bispecific antibody derived from No. 212 mouse antibody) (bispecific antibody)
chain: QVQLQESGPELVKPSETLSLTCKVSGDSITSGYWHWIRQFPGQKLEYMGYINYSGYTYYNPSLKSRLTISRDTSKNQYFLKLRSVTSDDTALYYCTSERNWGAFAYWGQGTLITVSSGGGGSGGGGSGGGGSENVLTQSPASLSVSPGERVTLNCRASSSVISTYLHWYQQKPGKPPRLWIYSTSNLASGIPARFSGSGSGTEYTLTISSVESEDFAVYYCQQFSGYPYTFGQGTKLEIKGGGGSDVQLVQSGAEVKKPGASVKVSCKASGYTFTRYTMHWVRQAPGQGLEWIGYINPSRGYTNYADSVKGRFTITTDKSTSTAYMELSSLRSEDTATYYCARYYDDHYCLDYWGQGTTVTVSSGGGGSGGGGSGGGGSDIVLTQSPATLSLSPGERATLSCRASQSVSYMNWYQQKPGKAPKRWIYDTSKVASGVPARFSGSGSGTDYSLTINSLEAEDAATYYCQQWSSNPLTFGGGTKVEIK
B11: 21G587 (19G294 anti-CD26 scFv joined to the WBP3311_2.306.4 anti-CD3 scFv) (bispecific antibody)
chain: EVQLVQSGAELVKPGASVKLSCAASGFNIKDTYIYWVRQAPGQGLEWVGRIEPMNGNTKYDPKFQGRFTMTANTSKNTAYLQLSSLRSEDTAVYYCSRGGWLLLYVMDYWGQGTLVTVSSGGGGSGGGGSGGGGSDIVMTQSPSSLSVTPGERVSISCRSDKSLLHSNGNTYLYWFLQKPGQSPQVLIYRMSNLASGVPDRFSGSGSGTDFTLTISRVEAEDVGVYYCFQQLEYPYTFGQGTKLEIKGGGGSQVQLVQSGAEVKKPGSSVKVSCKASGFAFTDYYIHWVRQAPGQGLEWMGWISPGNVNTKYNENFKGRVTITADKSTSTAYMELSSLRSEDTAVYYCARDGYSLYYFDYWGQGTLVTVSSGGGGSGGGGSGGGGSDIVMTQSPDSLAVSLGERATINCKSSQSLLNSRTRKNYLAWYQQKPGQPPKLLIYWASTRQSGVPDRFSGSGSGTDFTLTISSLQAEDVAVYYCTQSHTLRTFGGGTKVEIK

molecular target: CD26 protein (recombinant human CD26) (human) (UniProt P27487); assay: BLI (Octet), biotinylated 19G294 on SA sensor, 400 nM CD3 then 400 nM CD3 with 400 nM CD26

binding	Binder
binds	B1

molecular target: CD26 protein (recombinant human CD26) (human) (UniProt P27487); assay: BLI (Octet), biotinylated 19G294 on SA sensor, 400 nM CD26; on H9 CD26 added in 400 nM CD3 solution

binding	Binder
binds	B1

molecular target: CD26 protein (recombinant human CD26) (human) (UniProt P27487); assay: BLI (Octet QKe), CD26 on AR2G sensor

binding	Binder
binds	B2
binds	B3
binds	B4

molecular target: CD26 protein (recombinant human CD26) (human) (UniProt P27487); assay: dot blot: sample spotted on NC membrane, probed with CD26-HRP, chemiluminescence

binding	Binder
binds	B5
binds	B1

molecular target: CD26 protein (recombinant human CD26) (human) (UniProt P27487); assay: BLI (Octet), biotinylated CD26 on SA sensor; cell of the kdis column

binding	Binder
binds	B6
binds	B7

molecular target: CD26 protein (recombinant human CD26) (human) (UniProt P27487); assay: BLI (Octet), summary of Table 7

binding	Binder
binds	B8
binds	B9
binds	B1
binds	B6
binds	B7

molecular target: CD26 protein (recombinant human CD26) (human) (UniProt P27487); assay: dot blot, antibody spotted on NC membrane, probed with CD26-HRP

binding	Binder
binds	B10
binds	B8
binds	B9
binds	B5
binds	B1
binds	B6
binds	B7

molecular target: CD26 protein (recombinant human CD26) (human) (UniProt P27487); assay: BLI (Octet), biotinylated CD26 on SA sensor

binding	Binder
binds	B8
binds	B9
binds	B11
binds	B1
binds	B6
binds	B7

molecular target: CD26 protein (recombinant human CD26) (human) (UniProt P27487); assay: BLI (Octet)

binding	Binder
binds	B1
